About 17,000 (5.5%) of roughly 310,000 compounds were called active. Inconclusive results, whose numbers are uncertain, are shown with a selection of clear calls. Calls follow the shape of the dose curve; as a rule, active = well fitted inhibition curve with a large enough effect; inconclusive = small, poorly fitted or top-dose-only effect, or effect the other way; inactive = no such curve, though single readings can be large or run the other way. Potencies of inconclusive entries are doubtful fits and often do not repeat.
target: Nuclear receptor ROR-gamma (Mus musculus) (UniProt P51450); assay: qHTS for inhibitors of ROR gamma transcriptional activity; details: Drosophila S2 Gal4-RORgamma UAS-luciferase reporter, 20 h; series mostly up to 53.6 µM; also: nearly all actives have a fitted effect of over 60% in size
Procedure, shortened: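 Drosophila S2 cells stably expressing Gal4-DBD/mouse RORγ fusion under metallothionein promoter plus UAS-luciferase; compound 1 h, then 700 uM CuSO4 induction for 20 h at ambient temperature; inhibition read as reduced luminescence.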
Potency is read from the fitted curve at half-maximal effect.

Amino acid sequences for entries named in this document (tags omitted). A change or cut given only in a name is not applied to a line headed by its entry.
UniProt P51450: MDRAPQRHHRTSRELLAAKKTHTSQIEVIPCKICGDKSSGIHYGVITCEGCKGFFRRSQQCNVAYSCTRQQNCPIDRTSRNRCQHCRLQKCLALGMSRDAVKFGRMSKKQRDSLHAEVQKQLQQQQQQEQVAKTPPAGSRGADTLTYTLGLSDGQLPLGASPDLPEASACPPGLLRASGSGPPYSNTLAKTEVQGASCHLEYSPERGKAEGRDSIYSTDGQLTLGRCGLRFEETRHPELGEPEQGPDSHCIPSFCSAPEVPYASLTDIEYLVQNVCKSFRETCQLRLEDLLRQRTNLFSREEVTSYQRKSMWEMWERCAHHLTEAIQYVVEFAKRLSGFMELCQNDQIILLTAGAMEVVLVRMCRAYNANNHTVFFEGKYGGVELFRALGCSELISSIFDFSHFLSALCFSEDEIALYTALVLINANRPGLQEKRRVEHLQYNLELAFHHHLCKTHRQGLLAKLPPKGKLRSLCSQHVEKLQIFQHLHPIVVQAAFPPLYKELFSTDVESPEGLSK

Potency, active:
COc1ccc(C(=O)NC(=S)Nc2ccccc2[N+](=O)[O-])cc1OC 7.08 µM
Oc1ccc(NCc2ccccc2OCc2ccccc2F)cc1 12.6 µM
Cc1ccc2nc(N3C(=O)CNC3=S)sc2c1 1 µM
CC1CCCCN1S(=O)(=O)c1ccc(C(=O)Nc2nnc(-c3cccs3)o2)cc1 (stereo not given) 0.0891 µM
O=C(NC1CCCCC1)N1CCNCC1 7.94 µM
CCN(CCCn1c(=S)[nH]c2ncccc2c1=O)c1ccccc1 1.41 µM
c1ccc2c(c1)CCN(c1nc(CN3CCOCC3)nc3sc4c(c13)CCCC4)C2 11.2 µM
O=C1C=C(N2CCOCC2)C2(CCCCC2)O1 11.2 µM
Cc1ccccc1C(=O)NC(=S)Nc1ccccc1C(F)(F)F 0.794 µM
COc1ccc(-c2cc3nc(C)cc(N)n3n2)cc1 11.2 µM
NC(=S)N=Nc1c(O)[nH]c2c(Br)cc(Br)cc12 3.55 µM

Potency, inconclusive:
Cn1cc(/C=C/C(=O)c2ccccc2)c2ccccc21 5.62 µM [inhibitor, single point]
CC(C)c1ccc(N2C(=O)C3C4C=CC(CC4)C3C2=O)cc1 (stereo not given) 15.8 µM [activator, single point]
Cn1c(CCN2CCCCC2)nc2cc([N+](=O)[O-])ccc21 35.5 µM [inhibitor, single point]
CCOC(=O)c1ccc(NC(=S)N2CCCC(C(=O)OCC)C2)cc1 (stereo not given) 20 µM [inhibitor, single point]
O=C(Nc1ncc(Cc2cccc(Cl)c2Cl)s1)C1CCCO1 (stereo not given) 28.2 µM [inhibitor, single point]
Nc1ccc(Cc2nc3c(ccc4ccccc43)[nH]2)cc1 15.8 µM [activator, single point]
CC1Cc2ccccc2N1C(=O)COC(=O)C1(c2ccccc2F)CCCC1 (stereo not given) 0.112 µM [activator, full curve]
Cc1cc(Br)c2[nH]cc(CCNC(=O)c3ccco3)c2c1 11.2 µM [activator, single point]
CC(C)(C)N1C(=O)Cc2c1nc(N)c1c(N)nc(N3CCCCC3CO)c(C#N)c21 (stereo not given) 0.891 µM [inhibitor, single point]
O=C(CSc1nc2ccccc2n1CC(=O)N1CCOCC1)N1CCCC1 0.0028 µM [activator, full curve, poor fit]
CC(=O)Nc1ccc(NC(=O)C/C(C)=N/NC(N)=S)cc1 22.4 µM [inhibitor, single point]
COc1ccc(Br)cc1S(=O)(=O)N1CCCc2ccccc21 35.5 µM [activator, single point]
O=C(NCCc1ccncc1)Nc1ccc(Cl)cc1 17.8 µM [activator, single point]
CC(C)(C)c1cc(OC(=O)C2CCCC2)ccc1O 35.5 µM [inhibitor, single point]
c1ccc(CCN(Cc2ccccc2)Cc2nc(C3CC3)no2)cc1 11.2 µM [activator, single point]
O=C(CSc1nnnn1C1CCCCC1)N1CCc2ccccc21 1.78 µM [activator, single point]
Cc1ccccc1NC(=S)N(Cc1cccs1)C1CCCC1 25.1 µM [inhibitor, single point]
O=c1c2nccnc2[nH]c(=S)n1Cc1ccccc1 35.5 µM [inhibitor, single point]
Cn1c(=O)c2c(ncn2CCOc2ccc(F)cc2)n(C)c1=O 10 µM [activator, partial curve]
COc1ccc(-c2csc3ncnc(N4CCN(Cc5ccccc5)CC4)c23)cc1 35.5 µM [inhibitor, single point]
FC(F)(F)c1cccc(NC(=S)NCC2COc3ccccc3O2)c1 (stereo not given) 35.5 µM [inhibitor, single point]
Nc1nc(-c2nc3ccccc3[nH]2)cs1 14.1 µM [inhibitor, partial curve, poor fit]
CCCOc1ccc(OCCSc2nnc(N)s2)cc1 6.31 µM [activator, partial curve]
O=C(Nc1ccc2c(c1)OCO2)c1ccc2c(c1)OCO2 8.91 µM [inhibitor, partial curve]
Cc1ccc(S(=O)(=O)N2CC3CCCN3c3ccc(C(F)(F)F)cc32)cc1 (stereo not given) 7.94 µM [inhibitor, partial curve]
Cc1cc(C)nc(N/N=C/c2ccccc2)n1 11.2 µM [inhibitor, single point]
Cc1ccc2nc(COc3ccc(N(C)S(=O)(=O)c4ccccc4)cc3)cc(=O)n2c1 12.6 µM [activator, single point]
O=C(Cc1ccccc1)Nc1ccc(NC(=O)C2CC2)nc1 35.5 µM [activator, single point]
CCOC(=O)C1CCN(C(=O)c2cc3ccccc3oc2=O)CC1 0.708 µM [activator, full curve]
Cc1ccc(NC(=O)c2nc(S(=O)(=O)Cc3ccccc3C)ncc2Cl)cc1C 28.2 µM [inhibitor, single point]
CC(=N/O)/C(=N\O)c1ccc(C)o1 35.5 µM [inhibitor, single point]
O=C(O)c1ccc(/C=N/Nc2cccc(C(F)(F)F)c2)cc1 15.8 µM [activator, partial curve]
Cc1ccc(-c2nnn(CC(=O)N(CC3CCCO3)C(C(=O)NC(C)(C)C)c3ccc(F)cc3)n2)o1 (stereo not given) 31.6 µM [activator, single point]
O=C(CC(c1ccccc1)c1ccccc1)Nc1ccc(C(=O)O)cc1 39.8 µM [activator, partial curve, poor fit]
COc1cc2c(cc1OC)C1C(=O)c3ccc4c(c3OC1CO2)C=CC(C)(C)O4 (stereo not given) 0.251 µM [inhibitor, full curve, poor fit]
O=C(Cc1ccc2c(c1)OCCO2)N1CCN(S(=O)(=O)c2ccccc2C(F)(F)F)CC1 15.8 µM [activator, single point]
Cc1ccc(Cl)c(NC(=O)COC(=O)c2ccccc2C(=O)c2ccc(Cl)c([N+](=O)[O-])c2)c1Cl 11.2 µM [activator, partial curve, poor fit]
COc1ccc(C2CC(=O)c3c(C)nc(N4CCN(Cc5ccccc5)CC4)nc3C2)cc1OC (stereo not given) 15.8 µM [activator, partial curve]
COc1cc([N+](=O)[O-])c2ncsc2c1 14.1 µM [activator, single point]
O=C(c1cc(-c2ccco2)nc2ccccc12)N1CCN(c2ccc(F)cc2)CC1 15.8 µM [activator, partial curve]
COc1cc(CNc2ncnc3c2[nH]c2ccc(C)cc23)cc(OC)c1 10 µM [activator, partial curve]
Cc1ccc(Nc2cc(C)nn2-c2nc(C)cc(C)n2)cc1 5.62 µM [inhibitor, single point]

Nothing new here: 3 of the compounds above.
Potency, inconclusive:
Nc1nc(-c2nc3ccccc3[nH]2)cs1 14.1 µM [inhibitor, partial curve, poor fit]
CCCOc1ccc(OCCSc2nnc(N)s2)cc1 6.31 µM [activator, partial curve]
O=C(Nc1ccc2c(c1)OCO2)c1ccc2c(c1)OCO2 8.91 µM [inhibitor, partial curve]

Next part:

Potency, inactive:
O=C(CSc1nc2ccccc2s1)N/N=C/c1ccco1
CCCCC(=O)Nc1c(C)cc(C)cc1Cl
OCCNc1cc(-n2nc(-c3ccccc3)cc2-c2ccccc2)ncn1
COC1C=CO[C@@]2(C)Oc3c(C)c(O)c4c(O)c(c5c(nc6cc(C)ccn65)c4c3C2=O)NC(=O)/C(C)=C\C=CC(C)C(O)[C@@H](C)C(O)C(C)[C@@H](OC(C)=O)C1C (stereo not given in full)
O=C(O)c1ccc(-n2c(O)c(C=C3N=c4ccccc4=N3)sc2=S)cc1
Cc1ccc(-n2nc3c(=O)n(C(C)C(=O)NCCCc4ccccc4)nc(C)c3c2C)cc1 (stereo not given)
CCN(Cc1ccccc1)S(=O)(=O)c1cc(C(=O)NC2CCCCCC2)ccc1OC
Cc1ccc(C(=O)Nc2ccc(N3CCN(C)CC3)cc2)c(Cl)c1
O=C(COc1ccc(S(=O)(=O)NC2CCCCC2)cc1Cl)NCc1ccc2c(c1)OCO2
CC1CN(C(=O)Nc2ccccc2)c2ccccc2-[n+]2ccsc21 (stereo not given)
CCOc1ccccc1NC(=O)CCCNC(=O)c1ccc(Cl)cc1
Cc1c(Cl)cccc1NC(=O)CN1CCC(C(O)(c2ccccc2)c2ccccc2)CC1
Cc1cc(=O)n2[nH]c(SCc3ccc(Cl)cc3)nc2n1
Cc1ccc(/C=C(\NC(=O)c2ccccc2)C(=O)NC2CCN(Cc3ccccc3)CC2)o1
COc1ccc(N=c2cc(-c3ccc(O)cc3)oc3ccccc23)cc1
CN1CCN(NC(=O)Nc2ccc(Br)cc2Cl)CC1
O=C(Nc1nccs1)C1CCCN(S(=O)(=O)c2cccc3cccnc23)C1 (stereo not given)
COc1ccc(C(C)=O)cc1CN(C)C
O=C1c2ccccc2C(=O)N1S(=O)(=O)c1ccccc1
C/C(=N\NC(=O)c1ccc2ccccc2c1)c1cccnc1
C=CCOc1c(OC)cc(/C=N/Nc2cccc(C(=O)O)c2)c(Br)c1Br
COC(=O)c1cc(S(=O)(=O)N2CCN(c3ccccc3OC)CC2)cn1C

Arranged by length of the SMILES (ascending): some entries from above
Potency, inactive:
CCOc1ccccc1NC(=O)CCCNC(=O)c1ccc(Cl)cc1
COC(=O)c1cc(S(=O)(=O)N2CCN(c3ccccc3OC)CC2)cn1C
Cc1ccc(/C=C(\NC(=O)c2ccccc2)C(=O)NC2CCN(Cc3ccccc3)CC2)o1
